Results are given in words; binding and its absence hold for the method and conditions named. In cells and extracts the contact can be indirect. Some results given as binding are weak or reduced against the parent protein; the word gives no strength.
Target: T1, vitamin D receptor (human (endogenous in ACHN)) (UniProt P11473)
T1 sequence: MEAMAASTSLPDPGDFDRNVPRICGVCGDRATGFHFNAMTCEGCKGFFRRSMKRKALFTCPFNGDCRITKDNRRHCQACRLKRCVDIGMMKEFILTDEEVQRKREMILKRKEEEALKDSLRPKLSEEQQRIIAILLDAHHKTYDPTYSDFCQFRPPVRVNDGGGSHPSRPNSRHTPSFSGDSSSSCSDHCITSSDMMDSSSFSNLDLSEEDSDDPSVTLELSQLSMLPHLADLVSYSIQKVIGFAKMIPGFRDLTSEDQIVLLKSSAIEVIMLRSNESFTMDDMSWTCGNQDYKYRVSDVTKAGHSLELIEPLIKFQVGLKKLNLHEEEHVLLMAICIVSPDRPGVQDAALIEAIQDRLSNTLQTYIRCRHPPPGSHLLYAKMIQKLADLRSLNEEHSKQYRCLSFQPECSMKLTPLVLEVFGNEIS
Test: co-IP; ACHN cells pretreated with 1,25(OH)2D3 for 24 h, then stimulated with LPS for 6 h; total lysate (1000 μg protein) precleared with protein A/G-agarose, precipitated with 2 μg anti-VDR antibody and protein A/G-agarose; immunoblots with VDR and NF-κB p65 antibodies

Protein sequences, listed by entry. Tags and fused reporters are not part of them.
UniProt Q04206: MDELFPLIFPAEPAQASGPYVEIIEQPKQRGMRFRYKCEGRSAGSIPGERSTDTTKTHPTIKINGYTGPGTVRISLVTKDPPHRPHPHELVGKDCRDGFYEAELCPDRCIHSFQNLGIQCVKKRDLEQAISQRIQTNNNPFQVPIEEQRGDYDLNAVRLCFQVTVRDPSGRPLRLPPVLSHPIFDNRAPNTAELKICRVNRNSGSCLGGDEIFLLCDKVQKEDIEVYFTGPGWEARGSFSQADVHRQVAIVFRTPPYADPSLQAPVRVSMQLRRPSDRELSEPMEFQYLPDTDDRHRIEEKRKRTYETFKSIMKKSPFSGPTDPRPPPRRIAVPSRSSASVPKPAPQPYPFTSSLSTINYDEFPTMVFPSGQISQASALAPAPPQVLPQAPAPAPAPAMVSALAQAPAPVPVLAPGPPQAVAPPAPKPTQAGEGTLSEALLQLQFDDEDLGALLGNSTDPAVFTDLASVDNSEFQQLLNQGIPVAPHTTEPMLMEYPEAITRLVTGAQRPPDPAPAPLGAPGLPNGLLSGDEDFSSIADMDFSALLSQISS

- binding: binds
Substance: NF-κB p65 subunit (from UniProt Q04206 1-551)
